# Results: paper PMC8066076
# Results are given in words; binding and its absence hold for the method and conditions named. For part of these data: In cells and extracts the contact can be indirect. Some binding calls cover weakened binding; strength is not graded here. Where a sequence is shown, tags or fusion partners need not be part of it.
# B1: Arabidopsis thaliana actin-related protein 4 (AtARP4), cLuc fusion (protein, UniProt Q84M92 1-441)
# chain: MYGGDEVSAIVVDLGSHTCKAGYAGEDAPKAVFPSVIGAVDGVEAMDVDVDSTKTNSNSEDSKTESEKEKSKRKLYVGSQAMSYRRDHMEVLSPIKDGIVSDWDLVDNIWEHAFKSCLMIDPTEHPMLLAEPPLNTQQQREKAAELMFEKYKVPALFMAKNPVLTSFATGRATSLVVDCGGGSTTISPVHDGYVLQKAVVSSPLGGEFLTDCLLKSLESKGIKIRPRYSFKRKEVRAGEFQVEDVDIPDTTESYKLFCQRMIVGDIKDSICRVPDTPYDDKSYSNIPTTSYELPDGQTLEIGADRFKVPDVMFNPSIVQTIPGMEKYAEMIPSVRGLPHMVMESINKCDVDIRRELYSSILLAGGTSSMQQLKERLEKDLIEESPHSARVKVLASGNTTERRFSVWIGGSILASLGSFQQMWFSKSEYEEHGASYIQRKCP
# B2: AtARP4, full-length, yeast two-hybrid fusion (protein, UniProt Q84M92 1-441)
# chain: B1 chain
# How the values were obtained:
# [1] = target: PIE1 C-terminal (492-2055 residues), nLuc fusion (Arabidopsis thaliana) (UniProt Q7X9V2); assay: split reporter; split luciferase complementation imaging (LCI) in N. benthamiana leaves; AtARP4-cLuc and PIE1 fragment-nLuc co-infiltrated by Agrobacterium; luciferase activity imaged 48 h post-infiltration
# [2] = target: T1, PIE1 N-terminal (1-491 residues), nLuc fusion (Arabidopsis thaliana) (UniProt Q7X9V2); assay: as above
# T1 sequence: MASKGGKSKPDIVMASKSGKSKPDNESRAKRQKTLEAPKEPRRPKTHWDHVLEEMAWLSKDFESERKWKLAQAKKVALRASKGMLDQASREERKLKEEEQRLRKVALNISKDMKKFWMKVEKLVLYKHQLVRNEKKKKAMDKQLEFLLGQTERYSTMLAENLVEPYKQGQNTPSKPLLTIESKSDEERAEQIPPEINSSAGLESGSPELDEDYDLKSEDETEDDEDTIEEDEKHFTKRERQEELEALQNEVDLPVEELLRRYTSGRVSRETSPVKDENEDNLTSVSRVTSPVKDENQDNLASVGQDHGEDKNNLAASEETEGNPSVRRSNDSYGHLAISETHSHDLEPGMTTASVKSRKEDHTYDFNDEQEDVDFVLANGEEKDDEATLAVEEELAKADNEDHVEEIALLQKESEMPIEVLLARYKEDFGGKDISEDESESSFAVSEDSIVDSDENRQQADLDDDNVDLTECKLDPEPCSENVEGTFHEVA
# [3] = target: T2, PIE1-N terminal fragment, yeast two-hybrid fusion (Arabidopsis thaliana) (UniProt Q7X9V2); assay: two-hybrid; yeast two-hybrid in S. cerevisiae AH109; pGADT7-AD and pGBKT7-BD fusions; growth on SD-Leu/Trp/His with 1 mM 3'AT, 30 °C, 3 d
# T2 sequence: T1 sequence
Binder,binding [1],binding [2],binding [3]
B1,no binding,binds,
B2,,,binds
